PMC7477632

Sequences of proteins named here, by UniProt entry; tags and fusion partners are left off. Residues count along the entry.
UniProt P16860, 103-134: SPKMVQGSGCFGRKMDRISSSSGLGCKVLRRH
UniProt P05413, 2-133: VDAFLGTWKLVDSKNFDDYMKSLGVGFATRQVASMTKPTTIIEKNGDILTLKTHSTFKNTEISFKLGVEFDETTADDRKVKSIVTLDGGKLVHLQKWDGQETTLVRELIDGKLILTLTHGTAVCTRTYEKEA

Tests used:
Assay in all cases: sandwich SERRS lateral-flow assay
[1] = molecular target: B-type natriuretic peptide (BNP) (UniProt P16860); conditions: 0.1 ng/ml, signal in background range, running buffer PBS with 0.25% Tween, sample pad pretreated with 0.05 M Tris pH 7.6, 0.15 M NaCl, 0.25% Triton X-100, assay temperature not stated, commercial protein, single-stranded DNA
C-reactive protein (CRP) = molecular target: T1, C-reactive protein (CRP) (UniProt P02741); conditions: 0.1 ng/ml, signal in background range, running buffer PBS with 0.25% Tween, sample pad pretreated with 0.05 M Tris pH 7.6, 0.15 M NaCl, 0.25% Triton X-100, assay temperature not stated, commercial protein, single-stranded DNA
T1 sequence (looked up, limits assumed): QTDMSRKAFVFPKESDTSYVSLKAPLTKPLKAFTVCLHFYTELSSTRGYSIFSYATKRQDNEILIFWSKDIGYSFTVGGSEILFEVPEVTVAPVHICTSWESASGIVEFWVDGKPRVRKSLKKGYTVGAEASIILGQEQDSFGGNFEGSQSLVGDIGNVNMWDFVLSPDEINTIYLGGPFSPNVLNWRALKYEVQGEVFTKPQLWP

[2] = molecular target: heart-type fatty acid-binding protein (h-FABP) (UniProt P05413); conditions: 0.1 ng/ml, signal above CRP and BNP but in background range, running buffer PBS with 0.25% Tween, sample pad pretreated with 0.05 M Tris pH 7.6, 0.15 M NaCl, 0.25% Triton X-100, assay temperature not stated, commercial protein, single-stranded DNA
[3] = sandwich with N1, 5'-amine-spacer 18-spacer 18

Measured: binding result

TTTTTTCGTGCAGTACGCCAACCTTTCTCATGCGCTGCCCCTCTTA [primary cTnI aptamer]
no binding: [1]; sandwich with N2, 5'-biotin | C-reactive protein (CRP); sandwich with N2, 5'-biotin | [2]; sandwich with N2, 5'-biotin

CGCATGCCAAACGTTGCCTCATAGTTCCCTCCCCGTGTCC [secondary cTnI aptamer]
no binding: [1]; [3] | C-reactive protein (CRP); [3] | [2]; [3]

No signal at the amounts used counts as a negative. At least one verdict rests on a figure or table, not on a statement of the authors. For part of these data: Protein sequences can lack the tags named with them.
